For 34 compounds, AC50 results are on record in PubChem BioAssay AID1487 (National Center for Advancing Translational Sciences (NCATS), 2009).

The other results are listed elsewhere or left out. These are further read-outs of the screen, such as a control signal, another cell line or another target. No call is given for them. Most of these compounds were active or inconclusive in the main read-out, so they are no random draw. Words in brackets tell the shape of the fitted curve; partial curves, single points and poor fits give uncertain potencies.

The assay in a line: qHTS Assay for Modulators of Lamin A Splicing. Conditions: HeLa LMNA splicing GFP/RFP minigene ratio, 48 h. The essentials: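 S3 HeLa stable clones carrying a lamin A-EGFP splicing minigene plus DsRed2 were seeded at 600 cells/well in Opti-MEM with 2% FBS, pin-dosed and incubated 48 h at 37°C. Acumen cytometry (488 nm) gave the GFP/RFP total-intensity ratio.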
Background: In qHTS, concentration-response curves come from the screen itself.

The mark [1] stands for this setting: measured here: GFP splicing reporter channel.
Where [2] appears, read: measured here: RFP viability control channel.

On to `CCN(CC)S(=O)(=O)c1cc(C(=O)NC2CCCCC2)ccc1C`, for which the AC50 (in general, the concentration at which the activity in the assay is half-maximal) under setting [1] is 14.1 µM [rising, single point].

With `COc1ccc(C2(C(=O)Nc3ccc(S(N)(=O)=O)cc3)CCCC2)cc1`, the AC50 under setting [2] is 35.5 µM [falling, single point].

For `Cc1ccc(S(=O)(=O)N2CCCC(CCC(=O)NCc3ccccc3F)C2)s1` (centres undefined), the AC50 under setting [1] is 35.5 µM [falling, partial curve, poor fit].

Regarding `COc1ccccc1OCCC(=O)OCC(=O)NC(=O)NC(C)(C)C`, the AC50 under setting [2] is 10 µM [rising, single point].

As for `Cc1ccc(CN(C(=O)COc2cccc([N+](=O)[O-])c2)c2ccccn2)cc1`, the AC50 under setting [1] is 3.55 µM [rising, partial curve, poor fit].

Regarding `COCCn1c(C)cc(/C=C2/NC(=O)N(c3ccc(Cl)cc3)C2=O)c1C`, the concentration at half-maximal activity (AC50) under setting [1] is 5.01 µM [rising, single point].

Regarding `O=c1oc2ccccc2cc1-c1csc(Nc2nc3c(F)cccc3s2)n1`, the AC50 is, setting by setting: under setting [1], 3.98 µM [rising, partial curve]; under setting [2], 3.98 µM [rising, partial curve].

With `CC(=O)C1=C(C)N(Cc2ccccc2)C(=O)N[C@H]1CCc1ccccc1`, the AC50 by setting is: under setting [1], 11.2 µM [rising, partial curve]; under setting [2], 22.4 µM [rising, partial curve].

For the compound `CCCN(Cc1ccccc1)C(=S)Nc1ccc(OCC)cc1`, the AC50 was 6.31 µM [rising, partial curve] under setting [1] and 0.0562 µM [rising, full curve, poor fit] under setting [2].

Regarding `O=C(NCc1nnc(SCC(=O)N2CCCc3ccccc32)o1)c1ccco1`, the AC50 under setting [1] was 0.0708 µM [rising, full curve, poor fit].

On to `Cc1ccccc1C(=O)Nc1cccc(C(=O)OCc2cc(=O)n3c4c(sc3n2)CCCC4)c1`, for which the AC50 under setting [2] was 2.82 µM [rising, full curve].

In the case of `COCCSc1nnc(NC(=O)Cc2ccc(OC)c(OC)c2)s1`, the AC50 under setting [1] is 0.0126 µM [rising, full curve, poor fit].

As to `O=C(Nc1ccc(Br)cc1)c1cccc(S(=O)(=O)Nc2cnc3ccccc3c2)c1`, the AC50 is 3.16 µM [rising, full curve, poor fit] under setting [1] and 10 µM [rising, partial curve] under setting [2].

Consider `CN1CCCC(n2nc(Cc3ccc(Cl)cc3)c3ccccc3c2=O)CC1` (centres undefined), for which the AC50 under setting [1] was 0.01 µM [rising, full curve, poor fit] and the AC50 under setting [2] was 0.001 µM [rising, full curve, poor fit].

For `CCOc1ccc(C(CC(=O)O)NC(=O)c2cccs2)cc1` (centres undefined), the AC50 under setting [1] was 20 µM [falling, partial curve, poor fit].

Turning to `CN(C)S(=O)(=O)c1ccc(NC(=O)CSc2nc3ccccc3n2-c2ccccc2)cc1`, the AC50 under setting [2] was 25.1 µM [rising, single point].

Consider `CC(=O)Nc1ncc(Cc2cccc(Cl)c2)s1`, for which, under setting [1], the AC50 is 7.94 µM [rising, full curve, poor fit].

On to `O=C(CSC1=NC2(CCCCCC2)N=C1c1ccccc1)Nc1ccc2c(c1)OCCO2`, for which the half-maximal activity concentration (AC50) under setting [2] was 35.5 µM [rising, single point].

For the compound `CCC/C(O)=C1\C(=O)CC(c2ccccc2)CC1=NCCc1c(C)[nH]c2ccccc12` (centres undefined), the AC50 under setting [1] is 0.0316 µM [rising, single point] and the half-maximal activity concentration (AC50) under setting [2] was 28.2 µM [rising, single point].

With `CCOC(=O)N1CCC(Nc2cccc(SC)c2)CC1`, the AC50 runs as follows: under setting [1], 22.4 µM [rising, partial curve, poor fit]; under setting [2], 22.4 µM [rising, single point].

Take `S=c1[nH]cnc2scc(-c3ccccc3)c12`: under setting [2], the AC50 was 11.2 µM [rising, partial curve].

Turning to `FC(F)(F)C(F)(F)C(F)(F)C(F)(F)C(F)(F)C(F)(F)C(F)(F)C(F)(F)Br`, the AC50 is 35.5 µM [falling, single point] under setting [1] and 0.708 µM [falling, partial curve, poor fit] under setting [2].

In the case of `CCN(CC)Cc1c(O)ccc2c(-c3ccccc3)cc(=O)oc12`, the AC50 under setting [2] was 25.1 µM [rising, partial curve, poor fit].

Take `O=C(Nc1ccccc1)c1ccc(-c2ccccc2C(F)(F)F)o1`: the AC50 runs as follows: under setting [1], 11.2 µM [rising, partial curve]; under setting [2], 17.8 µM [rising, partial curve].

As to `c1ccc2c(c1)OCC(CNc1ncnc3nc[nH]c13)O2` (centres undefined), the AC50 was 12.6 µM [rising, single point] under setting [1] and 17.8 µM [rising, partial curve] under setting [2].

Turning to `CCOc1ccc2nc(N3CCC(C(=O)N4CCN(C(=O)c5ccco5)CC4)CC3)sc2c1`, the AC50 was 11.2 µM [rising, partial curve] under setting [1] and 17.8 µM [rising, single point] under setting [2].

As to `CCCc1cc(-c2n[nH]c(=S)n2CC(C)C)cs1`, under setting [2], the AC50 was 35.5 µM [rising, single point].

With `Cn1c(=O)c2c(ncn2CC(O)CNc2ccc(Cl)cc2)n(C)c1=O` (centres undefined), under setting [2], the AC50 is 35.5 µM [rising, single point].

Turning to `COc1ccccc1NS(=O)(=O)c1ccc2oc(SCc3ccc(F)cc3)nc2c1`, the AC50 under setting [2] is 2.51 µM [rising, partial curve].

In the case of `O=C(CSCC(=O)N1CCCc2ccccc21)Nc1nc(-c2ccccc2)cs1`, the AC50 reads like this: under setting [1], 6.31 µM [rising, partial curve]; under setting [2], 10 µM [rising, partial curve].

In the case of `CC(=O)OCC(=O)[C@@]1(O)[C@H](C)C[C@@H]2[C@H]3CCC4=CC(=O)C=C[C@]4(C)[C@]3(F)[C@@H](O)C[C@@]21C`, the AC50 reads like this: under setting [1], 0.00178 µM [rising, full curve, poor fit]; under setting [2], 3.16 µM [rising, single point].

For `O=C(CCl)NCc1c(Cl)cccc1-n1cccc1`, the AC50 was 17.8 µM [falling, single point] under setting [1] and 35.5 µM [falling, single point] under setting [2].

Regarding `Cc1cccc(C(=O)N[C@H](C(=O)Nc2nc3ccccc3[nH]2)C(C)C)c1`, the AC50 reads like this: under setting [1], 5.01 µM [falling, partial curve]; under setting [2], 0.158 µM [falling, full curve].

`O=C(CSCc1c(F)cccc1Cl)NCc1cccnc1`: under setting [2], the AC50 is 8.91 µM [rising, partial curve, poor fit].
